PubChem BioAssay AID1053208 | Peter MacCallum Cancer Centre – 2014

- Aim: 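Find knock-downs that sensitise mouse osteosarcoma cells to doxorubicin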 (primary screen)
- Cell system: mouse osteosarcoma cells, early-passage culture from an engineered mouse model of fibroblastic bone tumour
- Reagent: siRNA pool against mouse genes, 40 nM
- Duration: about 120 h (48 h before drug, then 72 h with drug)
- Challenge: doxorubicin 100 nM for 72 h, roughly 30-40% inhibitory dose
- Measurement: 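Viability read as ATP luminescence after 72 h of 100 nM doxorubicin or none, duplicate wells averaged, scaled to non-targeting siRNA, then expressed as robust z-scores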
- Reading the numbers: viability z-score with doxorubicin and doxorubicin viability vs non-targeting: higher = more viable cells under doxorubicin; viability z-score without drug: higher = more viable cells with knock-down alone; z-score of drug to no-drug ratio: higher = less drug sensitisation by knock-down
- Hit rule: 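Called active if knock-down leaves viability unchanged without drug (z within -2 to 2) but lowers it with doxorubicin (z at or under -2)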
This is a random part of about 17,000 reagents tested. Of all reagents, 788 (4.7%) are marked active. 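Calls rest on z-score classes alone; an extra cut-off of viability at most 70% of control was not applied to them.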 Entries without a mark were called inactive. The numbers tell different reagents against one gene apart.

| gene | reagent | combined z-score class | viability z-score with doxorubicin | viability z-score without drug | z-score of drug to no-drug ratio | doxorubicin viability vs non-targeting |
| --- | --- | --- | --- | --- | --- | --- |
| 4932407I05 | 1 | high cell count with and without drug | 2.02 | 2.36 | 0.56 | 1.12 |
| Cd177 | 1 | no change with or without drug | -1.12 | 1.35 | -1.8 | 0.84 |
| Vmn2r57 | 1 | no change with or without drug | 0.11 | 0.34 | 0 | 0.95 |
| Msc | 1 | no change with or without drug | 0.45 | -0.67 | 1.12 | 0.98 |
| Elac2 | 1 | no change with or without drug | 1.24 | 1.52 | 0.34 | 1.05 |
| Rigi | 1 | no change with or without drug | -0.45 | 0.67 | -0.79 | 0.9 |
| Tbl3 | 1 | no change with or without drug | -1.91 | -1.18 | -1.12 | 0.77 |
| Srsf12 | 1 | no change with or without drug | -0.22 | 0.67 | -0.56 | 0.92 |
| Vwa2 | 1 | high cell count without drug only | -1.8 | 2.02 | -2.81 | 0.78 |
| Tbp | 1 | no change with or without drug | -1.8 | -0.51 | -1.46 | 0.78 |
| Flt3 | 1 | high cell count without drug only | -0.9 | 2.36 | -2.14 | 0.86 |
| 4930566N20Rik | 1 | no change with or without drug | -0.22 | -1.85 | 1.35 | 0.92 |
| Mynn | 1 | no change with or without drug | 0 | -0.34 | 0.34 | 0.94 |
| Cimap1c | 1 | no change with or without drug | -0.9 | 0.84 | -1.35 | 0.86 |
| Rgs18 | 1 | no change with or without drug | 0 | 0.67 | -0.34 | 0.94 |
| Gtf2h4 | 1 | no change with or without drug | -0.67 | -0.51 | -0.22 | 0.88 |
| Gpr146 | 1 | no change with or without drug | -0.56 | 0 | -0.45 | 0.89 |
| Gpr146 | 2 | no change with or without drug | 1.01 | 1.18 | 0.34 | 1.03 |
| Bspry | 1 | low cell count with doxorubicin only (active) | -2.02 | 0.84 | -2.47 | 0.76 |
| Defa-rs12 | 1 | no change with or without drug | 1.01 | 0.84 | 0.56 | 1.03 |
| Tmprss5 | 1 | no change with or without drug | 0.56 | 0.17 | 0.56 | 0.99 |
| Kiss1 | 1 | no change with or without drug | -0.22 | 0.67 | -0.56 | 0.92 |
| Ano1 | 1 | no change with or without drug | 1.35 | 0.51 | 1.12 | 1.06 |
| Rfesd | 1 | no change with or without drug | -0.45 | 1.01 | -1.01 | 0.9 |
| Nkx2-6 | 1 | low cell count with and without drug | -2.47 | -2.19 | -1.12 | 0.72 |
| Or8k23 | 1 | no change with or without drug | -1.57 | -1.85 | -0.34 | 0.8 |
| Vbp1 | 1 | no change with or without drug | -0.45 | 0.34 | -0.56 | 0.9 |
| Gzme | 1 | no change with or without drug | 0.56 | 0.84 | 0.11 | 0.99 |
| Gna14 | 1 | no change with or without drug | -1.8 | 1.69 | -2.7 | 0.78 |
| Tas2r120 | 1 | no change with or without drug | 0.22 | 0.17 | 0.22 | 0.96 |
| Defb50 | 1 | no change with or without drug | 1.35 | 0.51 | 1.12 | 1.06 |
| Stk32b | 1 | no change with or without drug | 1.24 | -0.67 | 1.91 | 1.05 |
| Mllt10 | 1 | no change with or without drug | -1.8 | -0.51 | -1.46 | 0.78 |
| Reep4 | 1 | no change with or without drug | 1.91 | 0.67 | 1.57 | 1.11 |
| Vsig4 | 1 | no change with or without drug | 0 | -0.84 | 0.67 | 0.94 |
| Tsx | 1 | no change with or without drug | -0.79 | -0.51 | -0.34 | 0.87 |
| Tgfb2 | 1 | no change with or without drug | 1.01 | 0.34 | 0.9 | 1.03 |
| E130113K22RIK | 1 | no change with or without drug | -1.35 | 0.84 | -1.8 | 0.82 |
| Klhl38 | 1 | no change with or without drug | 0.45 | 0.51 | 0.22 | 0.98 |
| Gpr176 | 1 | no change with or without drug | -1.35 | 0.84 | -1.8 | 0.82 |
| Trip11 | 1 | no change with or without drug | 0.67 | -0.34 | 1.12 | 1 |
| Pth | 1 | no change with or without drug | 1.01 | -0.67 | 1.69 | 1.03 |
| Cpap | 1 | no change with or without drug | -0.45 | -1.85 | 1.01 | 0.9 |
| Polr1c | 1 | low cell count with doxorubicin only (active) | -2.47 | -0.51 | -2.25 | 0.72 |
| Fstl1 | 1 | high cell count with doxorubicin only | 2.36 | 0.17 | 2.47 | 1.15 |
| Bmp4 | 1 | no change with or without drug | 1.8 | 0.51 | 1.57 | 1.1 |
| C4a | 1 | no change with or without drug | 1.46 | 0.34 | 1.35 | 1.07 |
| Lix1 | 1 | no change with or without drug | -1.35 | -1.85 | 0 | 0.82 |
| Or4c29 | 1 | low cell count with doxorubicin only (active) | -2.02 | -1.85 | -0.9 | 0.76 |
| Echs1 | 1 | no change with or without drug | -0.45 | 0.51 | -0.67 | 0.9 |

A few values from above:
C4a, viability z-score without drug → 0.34
Result of Klhl38 under “viability z-score without drug”: 0.51
